Data as given in paper PMC5015018.

Experiments:
[1] = target: RsrR holo, oxidised [2Fe-2S]2+ (Streptomyces venezuelae) (UniProt F2RGC9); test: EMSA; settings: EMSA on ice, 10 mM Tris, 60 mM KCl, pH 7.52, 20 ul, 3.5-4 nM DNA, 5% PAGE in 1x TBE, reduced form with 5 mM sodium dithionite in protein and running buffer, recombinant protein, protein details: His (pGS-21a, RsrR-His)
[2] = target: T1, RsrR holo, reduced [2Fe-2S]1+ (Streptomyces venezuelae) (UniProt F2RGC9); test: EMSA; settings: reduced [2Fe-2S]1+, 5 mM dithionite, partial re-oxidation not excluded; EMSA on ice, 10 mM Tris, 60 mM KCl, pH 7.52, 20 ul; 3.5-4 nM DNA; 5% PAGE in 1x TBE; reduced form with 5 mM sodium dithionite in protein and running buffer; recombinant protein; protein details: His (pGS-21a, RsrR-His); label: 5' 6-FAM; probe letters rebuilt from the primers and the genome
T1 sequence (looked up, limits assumed): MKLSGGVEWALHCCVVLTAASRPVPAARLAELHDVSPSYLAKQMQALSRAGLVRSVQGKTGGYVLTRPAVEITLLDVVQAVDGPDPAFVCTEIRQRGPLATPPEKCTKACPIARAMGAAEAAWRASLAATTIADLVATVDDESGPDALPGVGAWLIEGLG

[3] = data not shown, cluster state not stated, label: 6-FAM, probe letters rebuilt from the primers and the genome
[4] = oxidised [2Fe-2S]2+, label: 5' 6-FAM, probe letters rebuilt from the primers and the genome
[5] = oxidised [2Fe-2S]2+, label: 6-FAM (M13 primers)
[6] = oxidised [2Fe-2S]2+, strong, label: 6-FAM (M13 primers)

CAGGAAACAGCTATGACAACAGGGAGAGCTGGTCGACCATCCCGTTGAACACCAGGGAGATCTCGCCCATGAGGCCGTCCGCCTCGTCGGGCAGCCGGGTGCCGAAATCACCGTCCCGCACCGCCGTGAGGCCTGCCAGGAGCTGTCGCAGCTCGGGCTCGCCCACCGCGGCCGGCCCGGGCCGCACCCGGACAGAGGAGCCTTCGGTCGTCATGTCAGACATGCCCCATCCTCGTTCCCCAACACGCTGCCGCTTACGGACCGTTCGGACCCGGTCACCAACTGGCCGTCGTTTTAG (double strand) [sven0372 probe]
binding result [1, 3]: binds

CAGGAAACAGCTATGACAAGGTCGCGACGCACACCATGATCATGACGGCGACGAGGGCCGCCATGGGGATCTCGGAGACCAACGGTCCGAAGACGAGGCACAGCACCATCAGGAAGACGCCCGCGAGGAAGGTGGAGAGGCGGGTACGGGCCCCGGACACCTTCACGTTGATCATCGTCTACTGGCCGTCGTTTTAG (double strand) [sven0519 probe (class 2)]
binding result [1, 4]: binds

CAGGAAACAGCTATGACACCTGAATCTCGCATGACCCTCCGATGATCGGCTCGTCCCCGCACCAACCCCGTTGACGGCGATCCGATTCCCGGCAAGCGGACGCAAGACCGCATGACCCGCGGGAACACGGCTAGGGGCTGTCCGGGAAGGCCTCGGGGCCGCCCTCCGCAGGGGCGAACTCGCACCAGACGATCTTGCCGGGATGGCGCGCCCCCACGCCCCAGCGGTCGGCCAGGGCGCCGACGAGGAGCAGGCCCCTGCCCGACTCGCCGGACGGCTCCCGGACGGCCGGGGTCCCGTCGCCGCTGTCGTGGACCTCGACACGGAGCGGGCCGGGCCGCTCCAGGTACAGGTGGAGGCGGTAGCCGCGGCCGGGCGGGACGCCGTGCCGGAGGGCGTTGGTGGCGAGTTCGCTCACGCACACCAGTACGTCGTCCGCACGCGCGTCCAGACCCCAGTCGGCGAGCGCCTTGCGGGCGAAGTCGCGGGCGAGGGGTACGGACCGGCGTTCGCGGCGGTAGAAGGCCTCGCGGAACAGGGGGAGTTCGTCGCTCATGACGCTCACGGTGGCCTGCGGCGGCCCACCCGCCCCAGGGCATCGAGCCGTACAAATTCTTTGTACGGGTCCGGAACGCGACTGGCCGTCGTTTTAG (double strand) [sven5174 probe]
binding result [1, 3]: binds

CAGGAAACAGCTATGACAGCACCAGCCGCTCGTCGAACGCGGCGGCCACCTCGACGGCGATCCGCAGGGCCCGGGCCGCGCCCGGTGACTCGTCGTATCCGAGTACGACCGACATCTCAGCGCCCCTTCCGGCCGTGGACCAGGTCGGGGTCGGCCACGCCCGGCCGCTCCGCCCAGAAGGCGGGCGACCGCAGCCGCCACACGATCATGACGAACTGGCCGTCGTTTTAG (double strand) [sven0247 probe (class 2)]
binding result [1, 4]: binds

CAGGAAACAGCTATGACCATCACGAGATCGCCCGCCTCGTTCCGGTACAGGTCGCGAACCTTGCCCGTGTGGAGATGGGTGAGGCCCGGGACCTGGACGGGTTCGGGCTTTTCTACGAATCCGGACACGGTTCCTCCGCGTAGGTTGATCCAGGAGCGTCTCCGATTCTCTCGCACATCCGGACGGCTCCGGACGCCCGCCCCTGTGACTCCCCGCTCAGTCCCTCTTGCAGATGCGGTCGAGGAGGTTCGCGGTGGCCCGCTGGATCCGGGCGTCGACATGGCCGGGCCGGTCGAGCGCCGGGGACCAGGCGAAAGTGCCGGAGGCGAAGACCCAGGCACCCGAAGGCGCCCGGTAGAGGCTCGTCTCCTGGTGCCGGGCCGCCCCGGCGGCATCGCGGTACGGCGAGTGGGCGAGACTGGCCGTCGTTTTAG (double strand) [sven3827 probe]
binding result [1, 3]: binds

CAGGAAACAGCTATGACCCGTCCGGCGCCCCGGGTGGCCCCGGCGACCAGGCAGATCCGTCCGCGCAGGCTGTTCGTGTCCTTCTTCTCCGTCGTCATGCGCACCAGCGTGACAGGGAAATCAGACATCTTCTGTCTGGTTTCATTTCGGGCTTTCCGGGTGCGTCGCACCCCCCGAACCAGGATGCTGGTCCCGTGATGGACGAGACGGAGTTCTGGGAGATCATCGACGCCAGCCGCGAGGAAGCCGAGGGCGACCCCGAGGAACAGGCCGACCTGCTCGTGGAGCGGCTGACCCGGCTGGACCCCGACTCCGTGCTCGACTACGCCCGCCATTTCGAGGCCCGCTACAACCGCGCGTACCTCTGGGATCTGTGGGGCGCGGCGGCCGTGCTGTTCGACGGGGCGGGCGAGGAGAACTGGCCGTCGTTTTAG (double strand) [sven1847/8 intergenic probe]
binding result ([1]; oxidised [2Fe-2S]2+, aerobic, label: 5' 6-FAM, probe letters rebuilt from the primers and the genome): binds | binding result [2]: binds more weakly

CAGGAAACAGCTATGACCGTGCAGCTCAGCGAGCCGGGCCGCCGGCACCGGCCTGCTCGCCGCCGTCAGGACCACACAGCAGTGGAGCGCCCACTCGACGCCACCGGACAGTTTCATGTCGCCTCCCCATTTGACTCGGACACAGACTATCCGAGTATTATCTCGGACATCGGGTATCCGAGTTTGCGTCCCCTGGGCCCCGGCCCACGAAGGAAGGCACACCATGAAGATCACCGTCATCGGCGGCACCGGCCTGATCGGCTCCCAGCTCGTCACCACGCTCCGGAACGCCGGCCACGACGTGGTCGCCGCGTCCCTCTCCTCGGGGGTCGACCTGCTCACCGGCGCCGGCCTGGACGACGCCCTCGCGGGCGCCCACACGGTCGTCAATGTCAGCAACTCCCCGACCTTCGACGAACTGGCCGTCGTTTTAG (double strand) [sven6563 probe]
binding result [1, 3]: binds

CAGGAAACAGCTATGACGCGGGGCGCCGTCGTCTTCTGCTGCTCCGGGTACTGCTCGGTCAGCCGCTTCTTGAACATGGCCTTGAAGGTCACGCCGAATCCGGCCACCGGATTCTGGAAATCAGACACCGTCCGTCTCCTTTCCATCACTCGCAGTAGCAGTATCGGAGGCGCCACTGACAACGAGGTCCCGGTCCTGCCGTGACCTGCGCCGGGGCACGGGCGGCAGGGACTGTCCGGGCTTGGGCGGTACGGGGAAGCCCCCGGCCATCGGGTCGAAGGAGGGCTCGTCGGCGGGCCGGGGCGCGGCCGCCTTCGCCCTGCGGTCGCGGAACAGGTCGACCACGAAGGACAGCAGCAGCAGTCCGAGGACGGCTCCGGCGACGTACAGGACGATGTTGCCGAAGGCGATGTTCTCACTGGCCGTCGTTTTAG (double strand) [sven4273 probe]
binding result [1, 3]: binds

CTAAAACGACGGCCAGTCCCAGCTACGAGGTGGCGAAGCAGGCCGCCGAGAAGGCCGGCCTCACGCTCCACGAGGAGTTCGACGGCGAGTTCGCCGCCAAGGTGACCACCGGCCCGTACGAGTGGACCCGGATGGCCGGTATCCAGATCGGCGGCCCCTCCAACAGCTGAGGCAACAACCTCGCGCGGGGCTCACCCGTTAGGACGTGTGGAGACGCGACACGTCCACACAGGGAGCCCCCCGAGATGATCGACACGCCGAACCTGGTGGACCAGTACTGCCACGGGGTGCTCCGCACGGAACTCGGCCTCGGCACCTTCGAGGCCCACCTCGGCGCCCAGCTCGGCGGGAGCTCCGCGCTGCCCGCCGCGGGCACCACCTTCTTCGACACCCAGACCGTCATAGCTGTTTCCTG (double strand) [sven1561 probe]
binding result [1, 3]: binds

CTAAAACGACGGCCAGTCCGATGTCCGAGATAATGTCATAGCTGTTTCCTG (double strand) [sven6562/3 Site 2 (half site)]
binding result [1, 5]: binds more weakly

CTAAAACGACGGCCAGTGCAAACTCGGATACCCGATGTCCGAGATAATGTCATAGCTGTTTCCTG (double strand) [sven6562/3 Site 1-2 (class 1 site)]
binding result [1, 6]: binds

CTAAAACGACGGCCAGTGCAAACTCGGATACCCGGTCATAGCTGTTTCCTG (double strand) [sven6562/3 Site 1 (half site)]
binding result [1, 5]: binds more weakly

CTAAAACGACGGCCAGTTAATACTCGGATAGTCTGTCATAGCTGTTTCCTG (double strand) [sven6562/3 Site 3 (half site)]
binding result [1, 5]: binds more weakly

CTAAAACGACGGCCAGTTAATACTCGGATAGTCTGTGTCCGAGTCAAAGTCATAGCTGTTTCCTG (double strand) [sven6562/3 Site 3-4 (class 1 site)]
binding result [1, 6]: binds

CTAAAACGACGGCCAGTTCTGTGTCCGAGTCAAAGTCATAGCTGTTTCCTG (double strand) [sven6562/3 Site 4 (half site)]
binding result [1, 5]: binds more weakly

Construct, isoform or probe ends are uncertain for at least one entry. The comparison behind a weaker result is the experiment's own reference, which may not be listed here. For some of these results: Where a protein sequence is shown, tags need not be part of it.
